Tested on: S. aureus NorA-, wild type, and NorA+
Test: Uptake studies (photosensitizer molecules per cell by extraction and fluorescence)
Type: cell-based, Staphylococcus aureus
Conditions: 10 μM

Cc1cc2nc3ccc(N(C)C)cc3[s+]c2cc1N.[Cl-] [TBO, Toluidine blue O]
uptake (NorA+): 0.114±0.016 ×10^9 molecules/cell | uptake (NorA-): 1.34±0.32 ×10^9 molecules/cell | uptake (wild-type): 0.16±0.02 ×10^9 molecules/cell

CN(C)c1ccc2nc3ccc(=[N+](C)C)cc-3sc2c1 [MB, methylene blue]
uptake (NorA+): 0.021±0.003 ×10^9 molecules/cell | uptake (NorA-): 1.22±0.22 ×10^9 molecules/cell | uptake (wild-type): 0.06±0.01 ×10^9 molecules/cell
